Data as given in PubChem BioAssay AID1159591 (NIAID, 2016).
This is an unselected part of 756 reagents. Over the whole deposit, 130 (17%) were called active. 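Active calls include both lower and higher Tnf reporter signal.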 No sequences are given here. Not given: the amount of reagent.

- Aim: 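TLR7/8 agonist R848 and Tnf expression after gene knock-down in mouse macrophages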
- Cells: mouse RAW264.7 G9 macrophage reporter clone (GFP-p65, Tnf promoter-mCherry)
- Reagents: single siRNA against mouse genes
- Time to read-out: cells assayed 48 to 72 hours after siRNA transfection; R848 for 16 hours before fixing
- Challenge: R848 (TLR7/8 agonist) for 16 hours before fixation; dose not given
- Measured: 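After R848 for 16 hours, nuclear Tnf promoter mCherry signal imaged minus background, scaled per plate by median and MAD into robust z against non-targeting controls, averaged across replicates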
- Reading the numbers: mean Tnf reporter z-score: higher = stronger Tnf promoter reporter signal than controls
- Active means: 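Absolute z above 1, 1.5, 2 or 2.5 scores 25 up to 100; no stated active threshold; in practice calls fall at roughly z ≤ -1.5 or z ≥ 1.5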
- Calls: active = reporter clearly up or down; inactive = little reporter change

Map2k3 (mitogen-activated protein kinase kinase 3) [SID303071470] → mean Tnf reporter z-score = -0.791; activity call = inactive
Map2k3 (mitogen-activated protein kinase kinase 3) [SID303071471] → mean Tnf reporter z-score = -0.825; activity call = inactive
Map2k3 (mitogen-activated protein kinase kinase 3) [SID303071472] → mean Tnf reporter z-score = 0.224; activity call = inactive
Map2k3 (mitogen-activated protein kinase kinase 3) [SID303071473] → mean Tnf reporter z-score = -1.19; activity call = inactive
Map2k3 (mitogen-activated protein kinase kinase 3) [SID303071474] → mean Tnf reporter z-score = -0.937; activity call = inactive
Map2k3 (mitogen-activated protein kinase kinase 3) [SID303071475] → mean Tnf reporter z-score = 0.253; activity call = inactive
Nfkbia [SID303071386] → mean Tnf reporter z-score = 0.0868; activity call = inactive
Nfkbia [SID303071387] → mean Tnf reporter z-score = -1.59; activity call = active
Nfkbia [SID303071388] → mean Tnf reporter z-score = 0.837; activity call = inactive
Nfkbia [SID303071389] → mean Tnf reporter z-score = -0.176; activity call = inactive
Nfkbia [SID303071390] → mean Tnf reporter z-score = 0.482; activity call = inactive
Nfkbia [SID303071391] → mean Tnf reporter z-score = -1.23; activity call = inactive
Egr2 (early growth response 2) [SID303071764] → mean Tnf reporter z-score = -0.0861; activity call = inactive
Egr2 (early growth response 2) [SID303071765] → mean Tnf reporter z-score = -1.79; activity call = active
Egr2 (early growth response 2) [SID303071766] → mean Tnf reporter z-score = -2.14; activity call = active
Egr2 (early growth response 2) [SID303071767] → mean Tnf reporter z-score = -2.76; activity call = active
Egr2 (early growth response 2) [SID303071768] → mean Tnf reporter z-score = -3; activity call = active
Egr2 (early growth response 2) [SID303071769] → mean Tnf reporter z-score = -2.16; activity call = active
Map2k6 (mitogen-activated protein kinase kinase 6) [SID303071476] → mean Tnf reporter z-score = -0.267; activity call = inactive
Map2k6 (mitogen-activated protein kinase kinase 6) [SID303071477] → mean Tnf reporter z-score = 0.231; activity call = inactive
Map2k6 (mitogen-activated protein kinase kinase 6) [SID303071478] → mean Tnf reporter z-score = -0.663; activity call = inactive
Map2k6 (mitogen-activated protein kinase kinase 6) [SID303071479] → mean Tnf reporter z-score = 0.876; activity call = inactive
Map2k6 (mitogen-activated protein kinase kinase 6) [SID303071480] → mean Tnf reporter z-score = -0.689; activity call = inactive
Map2k6 (mitogen-activated protein kinase kinase 6) [SID303071481] → mean Tnf reporter z-score = 0.849; activity call = inactive
Ticam2 (TIR domain containing adaptor molecule 2) [SID303071548] → mean Tnf reporter z-score = -0.788; activity call = inactive
Ticam2 (TIR domain containing adaptor molecule 2) [SID303071549] → mean Tnf reporter z-score = -0.598; activity call = inactive
Ticam2 (TIR domain containing adaptor molecule 2) [SID303071550] → mean Tnf reporter z-score = -2.85; activity call = active
Ticam2 (TIR domain containing adaptor molecule 2) [SID303071551] → mean Tnf reporter z-score = 0.00859; activity call = inactive
Ticam2 (TIR domain containing adaptor molecule 2) [SID303071552] → mean Tnf reporter z-score = -0.927; activity call = inactive
Ticam2 (TIR domain containing adaptor molecule 2) [SID303071553] → mean Tnf reporter z-score = -1.53; activity call = active
Ticam1 (TIR domain containing adaptor molecule 1) [SID303071542] → mean Tnf reporter z-score = 0.331; activity call = inactive
Ticam1 (TIR domain containing adaptor molecule 1) [SID303071543] → mean Tnf reporter z-score = 0.858; activity call = inactive
Ticam1 (TIR domain containing adaptor molecule 1) [SID303071544] → mean Tnf reporter z-score = -0.287; activity call = inactive
Ticam1 (TIR domain containing adaptor molecule 1) [SID303071545] → mean Tnf reporter z-score = -1.53; activity call = active
Ticam1 (TIR domain containing adaptor molecule 1) [SID303071546] → mean Tnf reporter z-score = -0.482; activity call = inactive
Ticam1 (TIR domain containing adaptor molecule 1) [SID303071547] → mean Tnf reporter z-score = -1.25; activity call = inactive
Nfkbie [SID303071398] → mean Tnf reporter z-score = -1.03; activity call = inactive
Nfkbie [SID303071399] → mean Tnf reporter z-score = -1.59; activity call = active
Nfkbie [SID303071400] → mean Tnf reporter z-score = 0.224; activity call = inactive
Nfkbie [SID303071401] → mean Tnf reporter z-score = -0.775; activity call = inactive
Nfkbie [SID303071402] → mean Tnf reporter z-score = -0.824; activity call = inactive
Nfkbie [SID303071403] → mean Tnf reporter z-score = 0.529; activity call = inactive
Mapk9 (mitogen-activated protein kinase 9) [SID303071518] → mean Tnf reporter z-score = 0.0548; activity call = inactive
Mapk9 (mitogen-activated protein kinase 9) [SID303071519] → mean Tnf reporter z-score = -0.308; activity call = inactive
Mapk9 (mitogen-activated protein kinase 9) [SID303071520] → mean Tnf reporter z-score = -1.71; activity call = active
Mapk9 (mitogen-activated protein kinase 9) [SID303071521] → mean Tnf reporter z-score = 0.762; activity call = inactive
Mapk9 (mitogen-activated protein kinase 9) [SID303071522] → mean Tnf reporter z-score = -0.553; activity call = inactive
Mapk9 (mitogen-activated protein kinase 9) [SID303071523] → mean Tnf reporter z-score = 0.43; activity call = inactive
